Experimental findings from publication PMC3979721, “Biochemical Properties of Ectoine Hydroxylases from Extremophiles and Their Wider Taxonomic Distribution among Microorganisms” (PLoS ONE, 2014) are described below.

Results are given in words; binding and its absence hold for the method and conditions named. Some binding calls cover weakened binding; strength is not graded here.

Experiment [1] has as its target Virgibacillus salexigens EctD protein (ectoine hydroxylase) (Virgibacillus salexigens) (UniProt Q2TDY4). Put plainly: SEC; data not shown; gel filtration as for the S. alaskensis protein (HiLoad 16/600 Superdex 200 pg, 20 mM TES-buffer containing 150 NaCl); both purified.
For experiment [2], the target named is Halomonas elongata EctD protein (ectoine hydroxylase) (Halomonas elongata) (UniProt E1VA04). The description is as above.

B1: Virgibacillus salexigens EctD protein (ectoine hydroxylase) (enzyme, UniProt Q2TDY4 1-300)
chain: MEDLYPSRQNNQPKILKRKDPVIYTDRSKDNQAPITKEQLDSYEKNGFLQIKNFFSEDEVIDMQKAIFELQDSIKDVASDKVIREPESNDIRSIFHVHQDDNYFQDVANDKRILDIVRHLLGSDVYVHQSRINYKPGFKGKEFDWHSDFETWHVEDGMPRMRAISVSIALSDNYSFNGPLMLIPGSHNYFVSCVGETPDNNYKESLKKQKLGVPDEESLRELTRIGGGISVPTGKAGSVTLFESNTMHGSTSNITPYPRNNLFMVYNSVKNRLVEPFSGGEKRPEYIAVREKQPVYSAVN
In the case of B1, the binding entry in experiment [1] is reported as “binds”.

B2: Halomonas elongata EctD protein (ectoine hydroxylase) (enzyme, UniProt E1VA04 1-332)
chain: MSVQTSSNRPLPQANLHIATETPEADSRIRSAPRPGQDPYPTRLSEPLDLPWLNRREPVVKGEEADGPLSAAQLDTFERQGFIFEPDFLKGEELEALRHELNALLARDDFRGRDFAITEPQGNEIRSLFAVHYLSRVFSRLANDERLMGRARQILGGEPYVHQSRINYKPGFEGKGFNWHSDFETWHAEDGMPAMHAVSASIVLTDNHTFNGPLMLVPGSHRVFVPCLGETPEDHHRQSLKTQEFGVPSRQALRELIDRHGIEAPTGAAGGLLLFDCNTLHGSNANMSPDPRSNAFFVYNRRDNRCVEPYAASKRRPRFLAHEPDEAWSPDG
Turning to B2, the binding result in experiment [2] was “binds”.
